In the supplement of paper PMC5355238:
Counter-ions that a name gives are not always drawn. The list shows a part of the results. Many values rest on one well or one pass, so single values are uncertain.

What follows are compounds tested on Reh (assay: S-phase gammaH2AX median, Z-score vs plate median (drug alone); higher = more S-phase DNA damage). Details: MK1775 concentration 0 nM; 10 µM; 4 h.

Q: Which “S-phase gammaH2AX median (Z-score)” value does the source give for `O=c1[nH]oc2c1CCNC2` [THIP hydrochloride] here?
A: Its value is -0.0133.

Q: For `NC(Cc1cc(O)c(O)cc1O)C(=O)O` (racemic) [6-Hydroxy-DL-DOPA], which “S-phase gammaH2AX median (Z-score)” value is on record?
A: Its value is -0.0661.

Q: How did the “S-phase gammaH2AX median (Z-score)” value turn out when `COc1cc(C(O)CN)ccc1O` (stereo unspecified) [(?)-Normetanephrine hydrochloride] was run?
A: The value was -0.128.

Q: Which “S-phase gammaH2AX median (Z-score)” value does the source give for `C[N+]1(C)[C@@H]2CC(OC(=O)[C@H](CO)c3ccccc3)C[C@H]1[C@@H]1O[C@@H]12` (single isomer, unassigned; (-)) [(-)-Scopolamine methyl nitrate] here?
A: Its value is 0.0734.

Q: Which “S-phase gammaH2AX median (Z-score)” value does the source give for `NC(CCP(=O)(O)O)C(=O)O` (stereo unspecified) [(?)-2-Amino-4-phosphonobutyric acid] here?
A: Its value is -0.0408.

Q: With `C[N+]1(C)CCc2cc3c(cc2[C@H]1[C@@H]1OC(=O)c2c1ccc1c2OCO1)OCO3` [(-)-Bicuculline methbromide, 1(S), 9(R)] as the compound, how does the “S-phase gammaH2AX median (Z-score)” value read?
A: The value was 0.142.

Q: How did the “S-phase gammaH2AX median (Z-score)” value turn out when `COc1ccc2c(c1O)-c1cccc3c1[C@@H](C2)N(C)CC3` [R(-)-Apocodeine hydrochloride] was run?
A: The value was -0.0819.

Q: With `NCC1(CC(=O)O)CCCCC1` [Gabapentin] as the compound, how does the “S-phase gammaH2AX median (Z-score)” value read?
A: The value was 0.0819.

Q: `CC(C)Oc1cccnc1N(C)C1CCN(Cc2ccccc2)CC1` was tested. Which “S-phase gammaH2AX median (Z-score)” value did it give?
A: Its value is -0.187.

Q: `C[C@@H]1O[C@H](C[N+](C)(C)C)CS1` [OXA-22 iodide] was tested. Which “S-phase gammaH2AX median (Z-score)” value did it give?
A: The value was -0.0641.

Q: `O=C(CCCN1CCC2(CC1)C(=O)NCN2c1ccccc1)c1ccc(F)cc1` [Spiperone hydrochloride] was tested. Which “S-phase gammaH2AX median (Z-score)” value did it give?
A: The value was -0.394.

Q: Which “S-phase gammaH2AX median (Z-score)” value does the source give for `CCCCCCC(C)(C)c1ccc([C@@H]2C[C@H](O)CC[C@H]2CCCO)c(O)c1` here?
A: The value was 0.00777.

Q: For `CN1C2CCC1CC(OC(c1ccccc1)c1ccc(Cl)cc1)C2` (stereo not drawn) [4'-Chloro-3-alpha-(diphenylmethoxy)tropane hydrochloride], which “S-phase gammaH2AX median (Z-score)” value is on record?
A: The value was -0.0447.

Q: `CCCn1c(=O)c2[nH]c(C3CCCC3)nc2n(CCCOC(=O)c2ccc(S(=O)(=O)F)cc2)c1=O` was tested. Which “S-phase gammaH2AX median (Z-score)” value did it give?
A: Its value is -0.0441.

Q: Which “S-phase gammaH2AX median (Z-score)” value does the source give for `CC(O)(CS(=O)(=O)c1ccc(F)cc1)C(=O)Nc1ccc(C#N)c(C(F)(F)F)c1` (stereo unspecified) [Bicalutamide (Casodex)] here?
A: Its value is -0.0375.

Q: For `CC(C)c1cccc(C(C)C)c1O` [Propofol], which “S-phase gammaH2AX median (Z-score)” value is on record?
A: The value was 0.0126.

Q: With `Cc1nc(-c2ccc(-c3ccc(C(=O)N4CCc5cc6c(cc54)C4(CCN(C)CC4)CO6)cc3)c(C)c2)no1` as the compound, how does the “S-phase gammaH2AX median (Z-score)” value read?
A: Its value is -0.834.

Q: For `CCCN1CCC[C@@H]2Cc3n[nH]cc3C[C@H]21` [(-)-Quinpirole hydrochloride], which “S-phase gammaH2AX median (Z-score)” value is on record?
A: The value was -0.0307.

Q: `CN1C[C@H](CNC(=O)OCc2ccccc2)C[C@@H]2c3cccc4c3c(cn4C)C[C@H]21` [Metergoline] was tested. Which “S-phase gammaH2AX median (Z-score)” value did it give?
A: The value was -0.0899.

Q: `N#CC(C#N)=Cc1cc(O)c(O)c(O)c1` [Tyrphostin 25] was tested. Which “S-phase gammaH2AX median (Z-score)” value did it give?
A: Its value is -0.214.

Q: For `OCc1cnc[nH]1` [4-Imidazolemethanol hydrochloride], which “S-phase gammaH2AX median (Z-score)” value is on record?
A: Its value is 0.0409.
